At least one structure is not confirmed: it was looked up by name or label, or the drawing left a doubt.
Legend:
NF-κB = NF-κB luciferase assay, TNFα-induced, NIH-3T3-KBF-Luc cells; conditions: alone or + THC 10 μM or + CBD 10 μM
CB2R = CB2R (Homo sapiens, UniProt P34972); experiment: CB2R agonism assay, HEK293T-CB2 cells with CRE-Luc reporter, forskolin-stimulated

Amino acid sequences for entries named in this document (tags omitted).
UniProt P34972, whole entry: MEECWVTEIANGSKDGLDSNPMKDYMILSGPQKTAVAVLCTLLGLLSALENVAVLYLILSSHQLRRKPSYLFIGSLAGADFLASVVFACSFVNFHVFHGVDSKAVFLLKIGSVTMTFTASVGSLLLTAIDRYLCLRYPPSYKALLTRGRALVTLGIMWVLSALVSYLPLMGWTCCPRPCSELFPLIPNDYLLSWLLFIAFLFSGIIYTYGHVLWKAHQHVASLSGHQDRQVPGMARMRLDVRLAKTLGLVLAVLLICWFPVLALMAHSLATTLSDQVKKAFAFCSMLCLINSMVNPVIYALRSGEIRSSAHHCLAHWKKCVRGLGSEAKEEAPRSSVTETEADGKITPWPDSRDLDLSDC

| Compound | Conclusions: Is NF-κB inhibitor effect observed? (NF-κB; Curcumin 0.1 μM) | Conclusions: Is NF-κB inhibitor effect observed? (NF-κB; Curcumin 1 μM) | Conclusions: Is CB2R agonist effect observed? (CB2R; Curcumin 0.1 μM, alone or + THC 10 μM or + THCA 10 μM) | Conclusions: Is CB2R agonist effect observed? (CB2R; Curcumin 1 μM, alone or + THC 10 μM or + THCA 10 μM) | Conclusions: Is CB2R agonist effect observed? (CB2R; Curcumin 5 μM, alone or + THC 10 μM or + THCA 10 μM) | Conclusions: Is CB2R agonist effect observed? (CB2R; Curcumin 10 μM, alone or + THC 10 μM or + THCA 10 μM) | Conclusions: Is CB2R agonist effect observed? (CB2R; Curcumin 15 μM, alone or + THC 10 μM or + THCA 10 μM) | Conclusions: Is CB2R agonist effect observed? (CB2R; Forskolin 1 μM (control without agonist)) |
| --- | --- | --- | --- | --- | --- | --- | --- | --- |
| COc1cc(/C=C/C(=O)CC(=O)/C=C/c2ccc(O)c(OC)c2)ccc1O [Curcumin, diferuloylmethane (curcumin)] | Negative | Negative | Negative | Negative | Negative | + (positive result (activity ≤50%) are considered agonistic of CB2R activity) | + (positive result (activity ≤50%) are considered agonistic of CB2R activity) | – |
| C=C[C@@]1(C)CC(=O)[C@]2(O)[C@@]3(C)[C@@H](O)CCC(C)(C)[C@@H]3[C@H](O)[C@H](OC(C)=O)[C@@]2(C)O1 [Forskolin, reference compound] | – | – | – | – | – | – | – | Negative |

— patent publication US20210236575A1 (priority 2018, published 2021)
